These are yes or no findings as the source states them, for the method shown. Binding seen in cells or lysates may run through a third protein. Some results given as binding are weak or reduced against the parent protein; the word gives no strength. For part of these data: Tags and fused reporters may be left off the sequences shown.
Experiments:
Flag-SIRT1^S682A (human) = Flag-SIRT1^S682A (human) (UniProt Q96EB6); experiment: co-IP; Flag-SIRT1 (wild type or mutant) precipitated from lysates of transfected 293T cells, AROS detected by immunoblot; Figures 6d, e: cells untreated or treated with Adriamycin (0.75 μg/ml for 4 h) and MG-132 (20 μM)
Flag-SIRT1 (human) = Flag-SIRT1 (human) (UniProt Q96EB6); experiment: as above
[1] = target: endogenous SIRT1 (Sirtuin 1) (human (endogenous in U2OS)) (UniProt Q96EB6); experiment: co-IP; endogenous SIRT1 precipitated from U2OS lysates, endogenous AROS detected by immunoblot; cells untreated or treated with Adriamycin (0.75 μg/ml for 4 h) and MG-132 (20 μM)

Protein sequences, listed by entry. Tags and fused reporters are not part of them. Lines headed by an entry give the natural chain unless they say otherwise; changes in a name come on top.
UniProt Q96EB6: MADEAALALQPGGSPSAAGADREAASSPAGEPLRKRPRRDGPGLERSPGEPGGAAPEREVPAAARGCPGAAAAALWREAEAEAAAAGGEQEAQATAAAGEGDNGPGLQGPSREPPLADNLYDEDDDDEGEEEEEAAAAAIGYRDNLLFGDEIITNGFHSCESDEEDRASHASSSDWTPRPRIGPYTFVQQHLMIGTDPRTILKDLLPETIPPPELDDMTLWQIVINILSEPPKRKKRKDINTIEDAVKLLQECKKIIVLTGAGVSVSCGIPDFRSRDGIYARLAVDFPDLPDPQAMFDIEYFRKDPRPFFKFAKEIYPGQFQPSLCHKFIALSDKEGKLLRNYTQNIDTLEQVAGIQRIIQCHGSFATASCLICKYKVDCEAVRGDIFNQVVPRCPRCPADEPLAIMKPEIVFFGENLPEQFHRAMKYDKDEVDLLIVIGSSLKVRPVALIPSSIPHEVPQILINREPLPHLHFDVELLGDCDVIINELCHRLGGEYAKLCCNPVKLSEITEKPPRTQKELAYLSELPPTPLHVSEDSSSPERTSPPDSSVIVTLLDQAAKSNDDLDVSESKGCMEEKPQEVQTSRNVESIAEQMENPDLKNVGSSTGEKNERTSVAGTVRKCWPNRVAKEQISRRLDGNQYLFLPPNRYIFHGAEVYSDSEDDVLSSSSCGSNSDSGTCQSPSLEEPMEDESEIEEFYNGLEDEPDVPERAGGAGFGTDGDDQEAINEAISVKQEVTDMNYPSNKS

Binder | binding (Flag-SIRT1^S682A (human)) | binding (Flag-SIRT1 (human)) | binding [1]
HA-AROS (protein, UniProt Q86WX3 1-136) MSAALLRRGLELLAASEAPRDPPGQAKPRGAPVKRPRKTKAIQAQKLRNSAKGKVPKSALDEYRKRECRDHLRVNLKFLTRTRSTVAESVSQQILRQNRGRKACDRPVAKTKKKKAEGTVFTEEDFQKFQQEYFGS | binds | binds | –
endogenous AROS (active regulator of SIRT1) (protein, UniProt Q86WX3 1-136) MSAALLRRGLELLAASEAPRDPPGQAKPRGAPVKRPRKTKAIQAQKLRNSAKGKVPKSALDEYRKRECRDHLRVNLKFLTRTRSTVAESVSQQILRQNRGRKACDRPVAKTKKKKAEGTVFTEEDFQKFQQEYFGS | – | – | binds
